Protein sequences, listed by entry. Tags and fused reporters are not part of them. Lines headed by an entry give the natural chain unless they say otherwise; changes in a name come on top.
UniProt Q15717, whole entry: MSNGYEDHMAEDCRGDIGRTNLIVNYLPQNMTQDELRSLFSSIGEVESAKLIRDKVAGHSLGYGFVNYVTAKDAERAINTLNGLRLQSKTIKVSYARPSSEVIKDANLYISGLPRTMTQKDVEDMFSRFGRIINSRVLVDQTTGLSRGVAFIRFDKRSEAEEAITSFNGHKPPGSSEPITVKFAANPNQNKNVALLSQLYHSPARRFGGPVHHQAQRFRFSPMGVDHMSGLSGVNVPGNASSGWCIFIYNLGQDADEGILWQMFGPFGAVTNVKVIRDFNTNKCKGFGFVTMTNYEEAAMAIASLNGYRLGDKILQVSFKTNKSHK
UniProt Q96DH6: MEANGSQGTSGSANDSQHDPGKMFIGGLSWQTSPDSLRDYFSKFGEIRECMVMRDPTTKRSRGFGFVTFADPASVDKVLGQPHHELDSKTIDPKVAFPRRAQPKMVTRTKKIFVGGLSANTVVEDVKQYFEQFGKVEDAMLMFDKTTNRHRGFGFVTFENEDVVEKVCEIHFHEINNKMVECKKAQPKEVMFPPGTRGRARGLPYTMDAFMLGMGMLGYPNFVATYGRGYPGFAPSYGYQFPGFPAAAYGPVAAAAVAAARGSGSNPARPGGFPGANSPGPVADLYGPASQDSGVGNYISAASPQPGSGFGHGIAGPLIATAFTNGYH
UniProt Q08211, whole entry: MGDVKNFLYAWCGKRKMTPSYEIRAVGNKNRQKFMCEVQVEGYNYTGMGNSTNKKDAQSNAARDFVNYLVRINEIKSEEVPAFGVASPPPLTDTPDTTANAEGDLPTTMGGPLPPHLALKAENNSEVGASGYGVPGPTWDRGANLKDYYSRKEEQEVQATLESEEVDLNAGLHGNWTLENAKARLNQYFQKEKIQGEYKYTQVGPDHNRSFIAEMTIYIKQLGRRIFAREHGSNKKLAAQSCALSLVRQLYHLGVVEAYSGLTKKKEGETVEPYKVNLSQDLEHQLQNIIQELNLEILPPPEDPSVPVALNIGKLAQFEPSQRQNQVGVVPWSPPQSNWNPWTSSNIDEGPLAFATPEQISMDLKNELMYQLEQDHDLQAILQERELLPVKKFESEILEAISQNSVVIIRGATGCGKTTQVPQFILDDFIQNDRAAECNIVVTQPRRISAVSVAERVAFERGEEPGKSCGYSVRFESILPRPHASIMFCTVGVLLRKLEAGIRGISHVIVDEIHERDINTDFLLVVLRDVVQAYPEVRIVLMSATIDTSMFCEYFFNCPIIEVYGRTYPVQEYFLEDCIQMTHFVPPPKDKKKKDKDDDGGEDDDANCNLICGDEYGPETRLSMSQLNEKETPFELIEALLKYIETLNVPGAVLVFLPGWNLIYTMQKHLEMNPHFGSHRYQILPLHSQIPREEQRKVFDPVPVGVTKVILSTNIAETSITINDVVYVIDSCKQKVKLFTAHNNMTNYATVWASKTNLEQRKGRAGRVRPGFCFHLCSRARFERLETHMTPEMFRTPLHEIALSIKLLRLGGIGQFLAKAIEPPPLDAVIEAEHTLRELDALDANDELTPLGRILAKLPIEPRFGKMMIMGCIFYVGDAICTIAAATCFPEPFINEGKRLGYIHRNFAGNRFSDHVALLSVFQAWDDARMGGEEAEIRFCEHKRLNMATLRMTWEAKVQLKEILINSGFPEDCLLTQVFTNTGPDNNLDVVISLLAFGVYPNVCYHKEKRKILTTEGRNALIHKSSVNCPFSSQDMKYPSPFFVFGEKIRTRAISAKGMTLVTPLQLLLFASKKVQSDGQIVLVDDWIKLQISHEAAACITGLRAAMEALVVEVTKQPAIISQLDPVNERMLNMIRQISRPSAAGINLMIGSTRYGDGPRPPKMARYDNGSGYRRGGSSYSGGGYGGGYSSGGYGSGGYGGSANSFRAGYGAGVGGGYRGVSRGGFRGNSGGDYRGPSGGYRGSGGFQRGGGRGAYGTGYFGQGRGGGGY

According to PMC8216281, “RNA pull-down confocal nanoscanning (RP-CONA) detects quercetin as pri-miR-7/HuR interaction inhibitor that decreases α-synuclein levels” (Nucleic Acids Research, 2021):

What was measured:
mCherry-HuR [1] = biological target: mCherry-HuR (UniProt Q15717); assay: RP-CONA bead pull-down, fluorescence; settings: Covalent pull-down: HeLa extract, beads washed with 2 M KCl, Buffer G (20 mM Tris-HCl pH 7.5, 137 mM NaCl, 1.5 mM MgCl2) and Roeder D, protein in a lysate after overexpression, protein details: mCherry, label: 5' FITC, 3' biotin
[2] = biological target: MSI2 (endogenous) (human (HeLa)) (UniProt Q96DH6); assay: pull-down, SILAC mass spectrometry; settings: heavy HeLa extract, reduced by quercetin; 3' periodate-oxidized, coupled to adipic acid dihydrazide-agarose; Covalent pull-down: HeLa extract, beads washed with 2 M KCl, Buffer G (20 mM Tris-HCl pH 7.5, 137 mM NaCl, 1.5 mM MgCl2) and Roeder D; protein in an extract
[3] = biological target: HuR (endogenous) (human (HeLa)) (UniProt Q15717); assay: pull-down, western blot; settings: HeLa extract, reduced by 100 uM quercetin or luteolin; 3' periodate-oxidized, coupled to adipic acid dihydrazide-agarose; Covalent pull-down: HeLa extract, beads washed with 2 M KCl, Buffer G (20 mM Tris-HCl pH 7.5, 137 mM NaCl, 1.5 mM MgCl2) and Roeder D; protein in an extract
[4] = biological target: DHX9 (endogenous) (human (HeLa)) (UniProt Q08211); assay: pull-down, western blot; settings: HeLa extract, reduced by 100 uM gossypol; 3' periodate-oxidized, coupled to adipic acid dihydrazide-agarose; Covalent pull-down: HeLa extract, beads washed with 2 M KCl, Buffer G (20 mM Tris-HCl pH 7.5, 137 mM NaCl, 1.5 mM MgCl2) and Roeder D; protein in an extract
mCherry-HuR [5] = biological target: mCherry-HuR (UniProt Q15717); assay: competition (RP-CONA); settings: untagged competitor vs N1; RP-CONA: RNA coupled to His-streptavidin Ni-NTA beads in PBS, 0.01% Triton X-100, 4 C; HEK293T cell extract; protein in a lysate after overexpression; protein details: mCherry
Lin28a-GFP = assay: RP-CONA bead pull-down, fluorescence; settings: reduced by anti-Lin28a antibody; Covalent pull-down: HeLa extract, beads washed with 2 M KCl, Buffer G (20 mM Tris-HCl pH 7.5, 137 mM NaCl, 1.5 mM MgCl2) and Roeder D; protein in a lysate after overexpression; protein details: GFP (pEGFP-N1); label: 5' Cy5, 3' biotin

AUUAUUUAUUAUUUAUUUAUUAUUUA [FITC-TNFα-ARE-bio]
binding result (mCherry-HuR [1]; inhibited by quercetin): binds

CUAAAUCCUCACUAUUUUUUUGUUGCUG [FITC-αSyn-ARE-bio]
binding result (mCherry-HuR [1]; 50 nM mCherry-HuR, inhibited by high quercetin): binds

UGUUGUUCUGUGAAGCCACAGAUGGGACAACAAA [FITC-pri-miR-7-1/30a-TL-bio]
binding result (mCherry-HuR [1]): no binding

UGUUGUUUUUAGAUAACUAAAUCGACAACAAA [FITC-pri-miR-7-1-CTL-bio]
binding result (mCherry-HuR [1]; inhibited by quercetin (inhibitor IC50 2.15 ± 0.16 uM) and luteolin (inhibitor IC50 2.03 ± 0.25 uM)): binds

UGUUGUUUUUAGAUAACUAAAUCGACAACAAA [pri-miR-7-1-CTL periodate-coupled]
binding result [2]: binds
binding result [3]: binds
binding result [4]: binds

UGUUGUUUUUAGAUAACUAAAUCGACAACAAA [pri-miR-7-1-CTL untagged]
binding result (mCherry-HuR [5]): binds

UUAGGGUCACACCCACCACUGGGAGAU [Cy5-pre-let-7a-1-CTL-bio]
binding result (Lin28a-GFP): binds

For at least one entry, the source does not settle the construct or the ends of the probe. Where cells or extracts were used, other partners may take part. For part of these data: No signal at the amounts used counts as a negative. For part of these data: At least one verdict rests on a figure or table, not on a statement of the authors.
